This assay has as its target T1, TurboID-tagged KDM5 (Lysine demethylase 5), N-terminal (NT-KDM5) or C-terminal (CT-KDM5) TurboID fusion (Drosophila melanogaster), Q9VMJ7.
T1 chain: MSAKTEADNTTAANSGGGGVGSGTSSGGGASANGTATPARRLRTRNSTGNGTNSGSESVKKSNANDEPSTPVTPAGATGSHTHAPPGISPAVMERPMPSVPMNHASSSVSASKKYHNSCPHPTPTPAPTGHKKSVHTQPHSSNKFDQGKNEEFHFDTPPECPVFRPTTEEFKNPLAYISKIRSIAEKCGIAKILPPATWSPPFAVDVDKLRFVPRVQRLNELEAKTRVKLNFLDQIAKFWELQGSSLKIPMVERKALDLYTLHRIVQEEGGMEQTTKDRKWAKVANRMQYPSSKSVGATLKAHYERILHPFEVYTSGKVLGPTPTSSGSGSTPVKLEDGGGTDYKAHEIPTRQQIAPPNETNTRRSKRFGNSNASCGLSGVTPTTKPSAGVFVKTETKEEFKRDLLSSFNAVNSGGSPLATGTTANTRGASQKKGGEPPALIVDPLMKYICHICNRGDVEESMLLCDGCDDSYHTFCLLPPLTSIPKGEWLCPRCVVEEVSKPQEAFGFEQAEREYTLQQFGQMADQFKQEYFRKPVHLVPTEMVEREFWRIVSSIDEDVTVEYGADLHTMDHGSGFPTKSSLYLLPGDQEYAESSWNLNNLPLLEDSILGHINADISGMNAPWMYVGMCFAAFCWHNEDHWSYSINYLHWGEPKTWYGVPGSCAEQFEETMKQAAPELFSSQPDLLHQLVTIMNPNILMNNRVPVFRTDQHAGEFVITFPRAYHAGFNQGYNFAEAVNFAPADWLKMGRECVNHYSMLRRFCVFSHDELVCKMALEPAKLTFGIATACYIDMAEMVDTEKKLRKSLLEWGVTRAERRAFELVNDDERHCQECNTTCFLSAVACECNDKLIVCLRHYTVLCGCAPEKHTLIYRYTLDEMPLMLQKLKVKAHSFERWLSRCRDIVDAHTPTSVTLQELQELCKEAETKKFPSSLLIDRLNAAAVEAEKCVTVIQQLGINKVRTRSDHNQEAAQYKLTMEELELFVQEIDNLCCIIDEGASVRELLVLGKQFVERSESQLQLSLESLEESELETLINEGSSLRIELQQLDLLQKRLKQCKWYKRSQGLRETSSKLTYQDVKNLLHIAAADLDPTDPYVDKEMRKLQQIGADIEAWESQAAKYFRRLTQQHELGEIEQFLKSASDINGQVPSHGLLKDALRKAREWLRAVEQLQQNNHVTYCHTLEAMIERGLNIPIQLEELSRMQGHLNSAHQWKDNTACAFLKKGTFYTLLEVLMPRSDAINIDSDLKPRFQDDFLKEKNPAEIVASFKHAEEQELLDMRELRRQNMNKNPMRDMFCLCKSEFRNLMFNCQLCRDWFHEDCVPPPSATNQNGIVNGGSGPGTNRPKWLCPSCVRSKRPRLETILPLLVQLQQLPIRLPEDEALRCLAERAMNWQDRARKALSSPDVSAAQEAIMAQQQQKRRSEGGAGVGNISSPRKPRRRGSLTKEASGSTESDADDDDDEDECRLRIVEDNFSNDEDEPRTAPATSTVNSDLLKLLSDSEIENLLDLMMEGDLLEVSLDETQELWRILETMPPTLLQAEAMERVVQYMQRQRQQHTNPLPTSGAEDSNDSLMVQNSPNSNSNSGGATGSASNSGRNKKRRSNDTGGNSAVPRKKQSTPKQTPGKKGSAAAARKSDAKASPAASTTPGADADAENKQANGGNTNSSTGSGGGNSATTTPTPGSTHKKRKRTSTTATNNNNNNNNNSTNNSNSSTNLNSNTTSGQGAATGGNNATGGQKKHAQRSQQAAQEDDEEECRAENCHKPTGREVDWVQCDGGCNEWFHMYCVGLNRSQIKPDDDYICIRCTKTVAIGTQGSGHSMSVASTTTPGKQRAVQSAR
In words: proximity labelling; TurboID fused to the N- or C-terminus of KDM5, expressed with Ubi-Gal4 in kdm5^140 null flies; adult heads lysed in RIPA, biotinylated proteins recovered on streptavidin magnetic beads, on-bead trypsin digestion, LC-MS/MS; enrichment over control (kdm5^140;gkdm5:HA) in experiments 1 and 2 and over dCas9:TurboID in experiment 2; nuclear proteins filtered at p < 0.1 across six datasets (high …). Conditions: remark: other sources report otherwise.

These are yes or no findings as the source states them, for the method shown. Binding seen in cells or lysates may run through a third protein. A yes stands for co-enrichment or nearness to the bait. Other partners may have been found. A no says only that the protein was not detected with the bait. Tags and fused reporters may be left off the sequences shown.

B1: transcription factor Foxo, Q95V55 1-613 (protein)
chain: MMDGYAQEWPRLTHTDNGLAMDQLGGDLPLDVGFEPQTRARSNTWPCPRPENFVEPTDELDSTKASNQQLAPGDSQQAIQNANAAKKNSSRRNAWGNLSYADLITHAIGSATDKRLTLSQIYEWMVQNVPYFKDKGDSNSSAGWKNSIRHNLSLHNRFMRVQNEGTGKSSWWMLNPEAKPGKSVRRRAASMETSRYEKRRGRAKKRVEALRQAGVVGLNDATPSPSSSVSEGLDHFPESPLHSGGGFQLSPDFRQRASSNASSCGRLSPIRAQDLEPDWGFPVDYQNTTMTQAHAQALEELTGTMADELTLCNQQQQGFSAASGLPSQPPPPPYQPPQHQQAQQQQQQQSPYALNGPASGYNTLQPQSQCLLHRSLNCSCMHNARDGLSPNSVTTTMSPAYPNSEPSSDSLNTYSNVVLDGPADTAALMVQQQQQQQQQQQLSASLEGQCLEVLNNEAQPIDEFNLENFPVGNLECNVEELLQQEMSYGGLLDINIPLATVNTNLVNSSSGPLSISNISNLSNISSNSGSSLSLNQLQAQLQQQQQQQQAQQQQQAQQQQQQHQQHQQQLLLNNNNNSSSSLELATQTATTNLNARVQYSQPSVVTSPPSWVH
For B1, the binding result is recorded as “no binding”.
